Laboratory results reported in PubChem BioAssay AID1897 (NMMLSC, 2009).

Sequences of proteins named here, by UniProt entry; tags and fusion partners are left off. A change or cut given only in a name is not applied to a line headed by its entry.
UniProt Q9Y2U5: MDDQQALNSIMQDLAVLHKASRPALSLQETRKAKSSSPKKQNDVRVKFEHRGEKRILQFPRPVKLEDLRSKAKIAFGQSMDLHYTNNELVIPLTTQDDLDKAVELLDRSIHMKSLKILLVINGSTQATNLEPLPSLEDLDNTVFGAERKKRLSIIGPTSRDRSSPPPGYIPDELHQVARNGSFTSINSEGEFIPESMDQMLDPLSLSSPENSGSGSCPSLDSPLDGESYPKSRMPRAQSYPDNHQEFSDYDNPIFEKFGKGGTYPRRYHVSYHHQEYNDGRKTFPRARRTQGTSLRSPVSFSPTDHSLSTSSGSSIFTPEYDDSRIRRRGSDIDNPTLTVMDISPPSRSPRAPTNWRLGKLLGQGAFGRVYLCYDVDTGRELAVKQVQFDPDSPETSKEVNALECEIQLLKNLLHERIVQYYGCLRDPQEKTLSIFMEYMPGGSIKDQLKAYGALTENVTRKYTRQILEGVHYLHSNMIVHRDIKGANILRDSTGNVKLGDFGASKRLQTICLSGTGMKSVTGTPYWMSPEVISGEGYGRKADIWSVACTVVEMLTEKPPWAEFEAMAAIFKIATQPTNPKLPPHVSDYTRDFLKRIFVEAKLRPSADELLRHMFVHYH
UniProt Q13163: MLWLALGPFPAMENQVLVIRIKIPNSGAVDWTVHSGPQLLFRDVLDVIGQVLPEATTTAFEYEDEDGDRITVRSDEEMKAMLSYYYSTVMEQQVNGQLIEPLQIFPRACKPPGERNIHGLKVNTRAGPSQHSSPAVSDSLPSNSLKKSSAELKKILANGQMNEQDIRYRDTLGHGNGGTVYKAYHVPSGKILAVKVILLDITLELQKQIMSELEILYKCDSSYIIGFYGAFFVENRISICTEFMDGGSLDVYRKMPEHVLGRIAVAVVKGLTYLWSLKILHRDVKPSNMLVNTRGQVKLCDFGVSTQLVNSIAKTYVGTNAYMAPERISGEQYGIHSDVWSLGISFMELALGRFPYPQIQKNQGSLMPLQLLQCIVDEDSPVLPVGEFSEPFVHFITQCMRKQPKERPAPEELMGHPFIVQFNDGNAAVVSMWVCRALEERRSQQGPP

Biological target: Mitogen-activated protein kinase kinase kinase 2 (Homo sapiens) + Dual specificity mitogen-activated protein kinase kinase 5 (Homo sapiens) (UniProt Q9Y2U5+Q13163)
Assay: inhibitors of MEK5 binding to MEKK2, dose response, biochemical, bead multiplex flow cytometry, wildtype (AID 1897)
Settings: MEK5-MEKK2 PB1 binding

## Cc1c2cc(O)c(=O)cc-2oc2cc(O)c(O)cc12
  EC50: 4.02 µM
